According to US6489098B1, “Means and methods for monitoring nucleoside reverse transcriptase inhibitor antiretroviral therapy and guiding therapeutic decisions in the treatment of HIV/AIDS” (ViroLogic, Inc., priority 1998, dated 2002):
At least one compound was matched to its structure with a doubt left.

What was measured:
[1] = tested on: patient RTV-621, RTV-285, RTV-690, RTV-770 and RTV-771 (T69SSA, T69SSG, T69SSS); test: Phenotypic susceptibility assay, patient isolates with T69SSX mutations/insertions; format: cell-based, HIV-1; conditions: patient samples with insertions at 69
Protocol: (§1) In these experiments patient-derived segment(s) corresponding to the HIV protease and reverse transcriptase coding regions were either patient-derived segments amplified by the reverse transcription-polymerase chain reaction method (RT-PCR) using viral RNA isolated from viral particles present in the serum of HIV-infected individuals or were mutants of wild type HIV-1 made by site directed mutagenesis of a parental clone of resistance test vector DNA. Isolation of viral RNA was performed using standard procedures (e.g. RNAgents Total RNA Isolation System, Promega, Madison Wis. or RNAzol, Tel-Test, Friendswood, Tex.). The RT-PCR protocol was divided into two steps. A retroviral reverse transcriptase [e.g. Moloney MuLV reverse transcriptase (Roche Molecular Systems, Inc., Branchburg, N.J.), or avian myeloblastosis virus (AMV) reverse transcriptase, (Boehringer Mannheim, Indianapolis, Ind.)] was used to copy viral RNA into cDNA. […]
(§2) Resistance tests were carried out with resistance test vectors using two host cell types. […] The resistance test vector viral particles were then used to infect a second host cell (the target host cell) in which the expression of the indicator gene is measured. […]

[2] = tested on: HIV with RT Met184→Val mutation; conditions: Met184→Val (M184V); cited from earlier work
[3] = tested on: patient RTV-136, RTV-240, RTV-955 and RTV-960 (A62V, V75I, F77L, F116Y, Q151M); test: Phenotypic susceptibility assay, patient isolates with multi-NRTI resistance mutations; format: cell-based, HIV-1; conditions: patient RTV pools with MDR mutations
Protocol: as §1, §2

[4] = tested on: HIV with RT Lys65→Arg mutation; conditions: Lys65→Arg (K65R); cited from earlier work
[5] = tested on: ZDV-resistant HIV isolates; conditions: cited from earlier work

Question: With `Nc1ccn([C@@H]2CS[C@H](CO)O2)c(=O)n1` [3TC, lamivudine] as the compound, how does the “susceptibility compared to wild-type control RTV” value [1] read?
Answer: The value was “decreased susceptibility”.

Question: What about the “fold increase in IC50 / reduction in susceptibility” value [2] of the same compound?
Answer: Its value is 500-fold to 1000-fold.

Question: What about the “susceptibility compared to wild-type control RTV” value [3] of the same compound?
Answer: The value was “decreases in susceptibility”.

Question: What about the “fold increase in IC50 / reduction in susceptibility” value [4] of the same compound?
Answer: Its value is 20 fold.

Question: What about the “cross-resistance of ZDV-resistant strains” value [5] of the same compound?
Answer: Its value is “no evidence that mutations selected for during ZDV monotherapy influence sensitivity”.
